No constants are given. Whether binding was seen depends on the method and setting. Some entries that bind do so weakly or less than the wild type.
Target: GFP-RCC2 (UniProt Q9P258)
Assay: pull-down; competition binding: GDP-loaded GST-Rac1 on glutathione magnetic beads, 5 µl of a constant GFP-tagged binding protein and increasing volumes of a second one, 50 mM Tris-HCl (pH 7.6), 20 mM MgCl2, 2 hr at 4 °C; both detected by quantitative anti-GFP Western blot; both purified

For “GFP-coronin-1C full-length (from UniProt Q9ULV4 1-474)”, the binding was “binds”.

From publication PMC4705812
